Laboratory results: article PMC12040169 (PLOS Biology, 2025)
Some of the results follow.

These molecules were tested on T1, CTL2-GFP (C. trachomatis L2/434/Bu, GFP-expressing). Conditions: bulk GFP, single well; 28.5 h, 10 µM; inhibitor.
T1 construct: L2/434/Bu, GFP-expressing
Design: species or system HeLa; Intracellular C. trachomatis growth in HeLa cells, bulk GFP fluorescence relative to DMSO

| SMILES | % of control remaining [%] |
| --- | --- |
| O[C@@]1(c2ccccn2)CC[C@H]2CN(Cc3ccccc3F)C[C@H]21 [CBK283001] | 114.511 |
| O=C1CN(c2ccccc2)C(=O)N1c1ccccc1 [CBK116496] | 121.864 |
| COc1ccc(NS(=O)(=O)c2ccc(OCC(=O)N3CCN(C)CC3)cc2)cc1Cl [CBK269565] | 143.592 |
| CCOC(=O)c1[nH]c(C)c(C(=O)N/N=C/c2ccc(-c3ccc(Cl)cc3)o2)c1C [CBK262503] | 100 |
| COC(=O)c1ccc(S(=O)(=O)n2ccn(-c3cccc(C(F)(F)F)c3)c2=O)n1C [CBK106594] | 113.054 |
| Cc1cc(OC(F)(F)F)ccc1NS(=O)(=O)c1cnn(-c2ccccc2)c1C [CBK062354] | 70.9071 |
| CN1CCN(C(=O)Cn2cc(C(=O)NC3CCCCC3)ccc2=O)C(c2ccccc2)C1 (stereo not shown) [CBK286102] | 127.054 |
| C[C@H]1CN2C[C@H](O)CC2CN1Cc1cccn1-c1ccc(F)cc1 (stereo partly shown) [CBK285465] | 149.457 |
| C#CCNS(=O)(=O)c1cccc(C(=O)N2CCOC(CC(=O)OC)C2)c1 (stereo not shown) [CBK306138] | 142.26 |
| Cn1ccnc1C(NC(=O)N1CCOCC1)c1ccc(F)c(F)c1 (stereo not shown) [CBK283781] | 146.488 |
| CNCCOCC(O)CSc1ccccc1 (stereo not shown) [CBK262704] | 109.859 |
| CC1CCc2c(C(=O)N(C)CC(=O)NC(C)(C)C)csc2C1 (stereo not shown) [CBK305002] | 123.04 |
| CCN(CC)CCN(C)C1CCN(C)CC1 [CBK261917] | 107.733 |
| CC(=O)C1=C(O)C(=O)N(CCC(=O)O)C1c1ccccc1 (stereo not shown) [CBK286763] | 133.013 |
| COc1cc(CN2CCC(N3CCCCCC3)CC2)ccc1OCc1ccccc1 [CBK264709G] | 100 |
| COc1ccc(C(=O)NC(=N)NCCc2c[nH]c3ccccc23)cc1 [CBK267840] | 107.899 |
| COc1ccc(C(NC(=O)C2CCN(Cc3c[nH]c4ccccc34)CC2)c2ccccn2)cc1 (stereo not shown) [CBK148033] | 104.089 |
| Cc1nc(N2CCOCC2)cc(N2CCN(C(=O)C3CCCC3)CC2)n1 [CBK307602] | 126.859 |
| CS(=O)(=O)N1CCCCCC1c1cc(-c2ccc(F)cc2)no1 (stereo not shown) [CBK284669] | 92.6542 |
| Cc1ccc(CN(C(=O)/C=C/C(=O)O)C(C)(C)C)cc1 [CBK286799] | 128.051 |
| CN(C)CC1CCCN(C(=O)C2C3CCCCC32)C1 (stereo not shown) [CBK282002] | 151.185 |
| O[C@@]1(c2ccccn2)CC[C@H]2CN(Cc3ccc(F)c(F)c3)C[C@H]21 [CBK285456] | 95.0628 |

Some of the entries above, reformatted:
SMILES	% of control remaining [%]
Cc1ccc(CN(C(=O)/C=C/C(=O)O)C(C)(C)C)cc1 [CBK286799]	128.051
CN(C)CC1CCCN(C(=O)C2C3CCCCC32)C1 (stereo not shown) [CBK282002]	151.185
